These are yes or no findings as the source states them, for the method shown. Binding seen in cells or lysates may run through a third protein. Binding can be weak; no strength is given.

Amino acid sequences for entries named in this document (tags omitted). A change or cut given only in a name is not applied to a line headed by its entry.
UniProt Q9TZI9: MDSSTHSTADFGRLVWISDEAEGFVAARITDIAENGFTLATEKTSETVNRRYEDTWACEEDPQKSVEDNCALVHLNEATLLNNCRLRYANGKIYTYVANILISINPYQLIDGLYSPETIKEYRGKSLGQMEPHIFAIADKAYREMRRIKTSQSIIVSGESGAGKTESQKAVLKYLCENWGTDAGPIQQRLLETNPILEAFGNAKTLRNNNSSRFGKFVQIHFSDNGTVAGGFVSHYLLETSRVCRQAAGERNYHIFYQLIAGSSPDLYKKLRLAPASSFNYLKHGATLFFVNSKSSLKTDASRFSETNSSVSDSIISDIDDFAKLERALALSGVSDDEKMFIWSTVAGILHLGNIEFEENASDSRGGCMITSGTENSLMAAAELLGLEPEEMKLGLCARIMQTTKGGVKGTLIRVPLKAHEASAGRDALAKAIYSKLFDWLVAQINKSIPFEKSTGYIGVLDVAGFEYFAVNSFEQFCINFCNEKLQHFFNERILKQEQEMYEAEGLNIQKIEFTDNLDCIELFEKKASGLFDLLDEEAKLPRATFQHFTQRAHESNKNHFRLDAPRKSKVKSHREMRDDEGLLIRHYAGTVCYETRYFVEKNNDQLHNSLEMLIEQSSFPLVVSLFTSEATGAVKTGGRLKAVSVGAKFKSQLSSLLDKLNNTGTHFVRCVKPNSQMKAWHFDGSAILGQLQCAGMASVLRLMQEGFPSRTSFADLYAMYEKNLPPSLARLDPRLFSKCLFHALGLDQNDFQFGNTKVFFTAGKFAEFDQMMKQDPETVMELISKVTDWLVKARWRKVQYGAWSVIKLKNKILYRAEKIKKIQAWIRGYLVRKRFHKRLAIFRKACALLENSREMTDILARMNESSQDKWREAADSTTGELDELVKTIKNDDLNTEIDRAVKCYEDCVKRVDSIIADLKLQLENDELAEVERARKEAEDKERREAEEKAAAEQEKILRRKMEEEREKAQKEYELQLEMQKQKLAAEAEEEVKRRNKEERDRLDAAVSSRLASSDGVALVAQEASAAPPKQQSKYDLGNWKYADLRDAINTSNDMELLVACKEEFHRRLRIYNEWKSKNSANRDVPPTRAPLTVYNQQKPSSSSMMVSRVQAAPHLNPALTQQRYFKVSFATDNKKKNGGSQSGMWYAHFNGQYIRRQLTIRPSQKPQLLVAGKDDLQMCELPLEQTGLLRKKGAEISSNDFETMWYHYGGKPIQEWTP
UniProt Q18488: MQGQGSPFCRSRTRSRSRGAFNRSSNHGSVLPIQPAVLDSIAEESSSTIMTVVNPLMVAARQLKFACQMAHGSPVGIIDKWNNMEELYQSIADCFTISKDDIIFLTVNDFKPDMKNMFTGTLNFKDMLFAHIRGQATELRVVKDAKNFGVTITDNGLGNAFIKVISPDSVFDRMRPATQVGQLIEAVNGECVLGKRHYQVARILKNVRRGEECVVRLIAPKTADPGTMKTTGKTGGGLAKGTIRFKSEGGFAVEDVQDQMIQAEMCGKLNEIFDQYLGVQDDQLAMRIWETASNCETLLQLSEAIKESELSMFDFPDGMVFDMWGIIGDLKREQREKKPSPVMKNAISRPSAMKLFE
UniProt Q20393: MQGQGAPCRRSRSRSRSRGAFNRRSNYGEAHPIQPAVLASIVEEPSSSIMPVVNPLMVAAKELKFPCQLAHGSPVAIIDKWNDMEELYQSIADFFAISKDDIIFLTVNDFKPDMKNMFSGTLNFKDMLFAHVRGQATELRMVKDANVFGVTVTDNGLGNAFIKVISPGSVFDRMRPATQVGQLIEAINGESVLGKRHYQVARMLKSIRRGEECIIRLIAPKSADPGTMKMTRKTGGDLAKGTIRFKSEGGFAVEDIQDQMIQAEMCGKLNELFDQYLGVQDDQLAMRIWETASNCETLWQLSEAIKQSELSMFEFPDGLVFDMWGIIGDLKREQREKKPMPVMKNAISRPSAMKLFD

For the assay, the target named is FLAG::SPE-15 (CBD), cargo-binding domain of wild-type SPE-15/myosin VI (C. elegans) (UniProt Q9TZI9). As to the kind of experiment: co-IP; purified proteins mixed in 400 μl TBST (50 mM Tris-HCl pH 7.5, 300 mM NaCl, 0.1% Tween 20), 4°C, 2 h; FLAG::SPE-15(CBD) captured on anti-FLAG M2 magnetic beads, 4 h; bound MYC::GIPC shown by anti-MYC western blot; both purified. In general terms: In western blotting, separated proteins are transferred to a membrane and probed.

For the substance MYC::GIPC-1 (from UniProt Q18488), the binding entry was “binds”.

For the substance MYC::GIPC-2 (from UniProt Q20393), the binding result was “binds”.

For the origin of these results see article PMC6485759.
